PubChem BioAssay AID1259254 | NCATS – 2017
Screen: 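Gene knock-downs that lead to re-replication, shown by excess G2 DNA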 (primary screen). System: human HCT116 colorectal cancer cells. Reagent: single siRNA against human genes. Time to read-out: 3 days. Read-out: 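Nuclei stained with Hoechst and imaged; cell-cycle phase assigned by DNA content; G2 share scaled per plate, non-targeting siRNA 0%, GMNN siRNA 100%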. Reading the numbers: G2 robust z-score: higher = more G2 cells, more excess DNA replication. Call rule: 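Active siRNAs have a G2 robust z of 5 or more median absolute deviations over the median, which in these data means about 38% or higher of GMNN control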.
The whole screen tested about 59,000 reagents; below is an unselected part. About 1,550 of all reagents (2.6%) were called active. 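G2 share is only a proxy for re-replication; each gene was hit by three separate siRNAs, and active genes were retested.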 The numbers tell different reagents against one gene apart. Further read-outs or replicates are left out here. Reagent sequences are not shown. Not stated in the record: the amount of reagent.

{"gene":"F2RL3","siRNA no.":1,"G2 robust z-score":3.54,"outcome":"inactive"}
{"gene":"F2RL3","siRNA no.":2,"G2 robust z-score":-0.875,"outcome":"inactive"}
{"gene":"F2RL3","siRNA no.":3,"G2 robust z-score":-0.711,"outcome":"inactive"}
{"gene":"NSL1","siRNA no.":1,"G2 robust z-score":-0.44,"outcome":"inactive"}
{"gene":"NSL1","siRNA no.":2,"G2 robust z-score":2.84,"outcome":"inactive"}
{"gene":"NSL1","siRNA no.":3,"G2 robust z-score":0.225,"outcome":"inactive"}
{"gene":"TBC1D17","siRNA no.":1,"G2 robust z-score":7.51,"outcome":"active"}
{"gene":"TBC1D17","siRNA no.":2,"G2 robust z-score":0.197,"outcome":"inactive"}
{"gene":"TBC1D17","siRNA no.":3,"G2 robust z-score":-0.98,"outcome":"inactive"}
{"gene":"SYAP1","siRNA no.":1,"G2 robust z-score":0.197,"outcome":"inactive"}
{"gene":"SYAP1","siRNA no.":2,"G2 robust z-score":2.53,"outcome":"inactive"}
{"gene":"SYAP1","siRNA no.":3,"G2 robust z-score":-0.544,"outcome":"inactive"}
{"gene":"NKIRAS1","siRNA no.":1,"G2 robust z-score":-0.997,"outcome":"inactive"}
{"gene":"NKIRAS1","siRNA no.":2,"G2 robust z-score":-1.48,"outcome":"inactive"}
{"gene":"NKIRAS1","siRNA no.":3,"G2 robust z-score":-1.01,"outcome":"inactive"}
{"gene":"NRTN","siRNA no.":1,"G2 robust z-score":1.52,"outcome":"inactive"}
{"gene":"NRTN","siRNA no.":2,"G2 robust z-score":2.73,"outcome":"inactive"}
{"gene":"NRTN","siRNA no.":3,"G2 robust z-score":-0.0957,"outcome":"inactive"}
{"gene":"ARSI","siRNA no.":1,"G2 robust z-score":-0.112,"outcome":"inactive"}
{"gene":"ARSI","siRNA no.":2,"G2 robust z-score":-0.299,"outcome":"inactive"}
{"gene":"ARSI","siRNA no.":3,"G2 robust z-score":-0.374,"outcome":"inactive"}
{"gene":"KRTCAP3","siRNA no.":1,"G2 robust z-score":-0.106,"outcome":"inactive"}
{"gene":"KRTCAP3","siRNA no.":2,"G2 robust z-score":-0.0515,"outcome":"inactive"}
{"gene":"KRTCAP3","siRNA no.":3,"G2 robust z-score":0.169,"outcome":"inactive"}

Laid out differently: results already given
SYAP1 #3
- G2 robust z-score: -0.544
- outcome: inactive

NKIRAS1 #1
- G2 robust z-score: -0.997
- outcome: inactive
